Strings that start with PEPTIDE1 are HELM notation: dots part the residues, brackets hold end groups and non-standard residues. Where no end group is shown, it is not given here. The star is where a group is joined. 5FAM = O=C1OC2(c3ccc(O)cc3Oc3cc(O)ccc32)c2ccc(C(=O)*)cc21
Assay: peptide synthesis
Details: whole synthesis, analytical HPLC

Substance	purity (crude or final not stated)
5FAM-CGYRPVHNIGHWRAPG	98.56%
5FAM-CGYRPVHNIRGHGAPG	98.26%
CGYRPVHNIRGHWAPG	98.11%
Cys-Gly-Tyr-Arg-Pro-Val-His-Asn-Ile-Arg-Gly-His-Trp-Ala-Pro-Gly-Lys-5-FAM (CGYRPVHNIRGHWAPGK; C-terminal 5-FAM; artificial peptide CGY-FAM; SITE 17 misc_feature - a fluorophore (e.g., 5-FAM) is attached to Lys)	98.36%
PEPTIDE1{[5FAM].C.G.Y.R.P.V.H.N.I.R.G.H.W.A.P.G}$$$$V2.0	98.91%

— patent publication US12357702B2 (S. M. Discovery Group Inc., priority 2013, dated 2025)
